These are yes or no findings as the source states them, for the method shown. In cells and extracts the contact can be indirect. A result given as binding can be weak or reduced; the word gives no strength. Where a sequence is shown, tags or fusion partners need not be part of it.
Molecular target: T1, Iml1-myc (S. pombe) (UniProt O74788)
T1 sequence: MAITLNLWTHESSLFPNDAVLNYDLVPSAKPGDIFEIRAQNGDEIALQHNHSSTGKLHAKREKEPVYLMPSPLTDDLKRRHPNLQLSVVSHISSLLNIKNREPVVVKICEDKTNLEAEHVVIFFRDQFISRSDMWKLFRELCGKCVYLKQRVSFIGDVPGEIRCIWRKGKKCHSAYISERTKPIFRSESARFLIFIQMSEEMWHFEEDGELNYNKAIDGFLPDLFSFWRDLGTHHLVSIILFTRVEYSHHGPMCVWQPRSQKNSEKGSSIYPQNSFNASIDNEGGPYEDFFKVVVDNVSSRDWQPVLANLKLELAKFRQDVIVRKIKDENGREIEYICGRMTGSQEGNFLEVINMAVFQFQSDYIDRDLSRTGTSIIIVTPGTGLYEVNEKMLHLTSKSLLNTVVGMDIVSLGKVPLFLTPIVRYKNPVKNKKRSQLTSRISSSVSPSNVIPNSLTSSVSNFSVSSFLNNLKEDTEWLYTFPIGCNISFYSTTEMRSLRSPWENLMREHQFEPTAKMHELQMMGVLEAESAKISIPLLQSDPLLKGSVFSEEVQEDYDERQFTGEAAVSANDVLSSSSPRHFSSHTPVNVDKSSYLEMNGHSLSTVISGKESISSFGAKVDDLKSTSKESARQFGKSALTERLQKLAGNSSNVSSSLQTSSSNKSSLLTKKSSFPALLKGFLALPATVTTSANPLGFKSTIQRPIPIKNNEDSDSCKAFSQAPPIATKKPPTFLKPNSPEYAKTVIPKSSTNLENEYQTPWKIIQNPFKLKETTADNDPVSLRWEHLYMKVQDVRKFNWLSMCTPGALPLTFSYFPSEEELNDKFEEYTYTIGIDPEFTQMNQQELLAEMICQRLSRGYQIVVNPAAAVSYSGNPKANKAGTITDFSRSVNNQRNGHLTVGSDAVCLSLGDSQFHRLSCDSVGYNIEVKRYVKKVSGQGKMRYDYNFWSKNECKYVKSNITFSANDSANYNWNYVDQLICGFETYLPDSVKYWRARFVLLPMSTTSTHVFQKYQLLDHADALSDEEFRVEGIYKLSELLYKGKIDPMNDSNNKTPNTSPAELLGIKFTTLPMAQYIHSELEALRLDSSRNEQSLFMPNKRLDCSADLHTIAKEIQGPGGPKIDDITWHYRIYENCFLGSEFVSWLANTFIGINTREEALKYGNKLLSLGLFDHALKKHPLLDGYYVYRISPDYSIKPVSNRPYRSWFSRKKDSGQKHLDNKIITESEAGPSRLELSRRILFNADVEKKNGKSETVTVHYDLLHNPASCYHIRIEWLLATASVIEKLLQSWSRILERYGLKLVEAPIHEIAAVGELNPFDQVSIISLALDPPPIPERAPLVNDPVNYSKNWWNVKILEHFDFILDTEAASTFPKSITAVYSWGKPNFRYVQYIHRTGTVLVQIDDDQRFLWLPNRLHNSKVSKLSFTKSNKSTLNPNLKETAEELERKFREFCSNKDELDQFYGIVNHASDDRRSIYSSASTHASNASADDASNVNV
Assay: co-IP

## FLAG-Npr2 (S. pombe)
  binding: binds

## FLAG-Npr3 (S. pombe)
  binding: binds

Reference: PMC7857730
